Experimental data: publication PMC4502471

Sequences of proteins named here, by UniProt entry; tags and fusion partners are left off.
UniProt Q07955: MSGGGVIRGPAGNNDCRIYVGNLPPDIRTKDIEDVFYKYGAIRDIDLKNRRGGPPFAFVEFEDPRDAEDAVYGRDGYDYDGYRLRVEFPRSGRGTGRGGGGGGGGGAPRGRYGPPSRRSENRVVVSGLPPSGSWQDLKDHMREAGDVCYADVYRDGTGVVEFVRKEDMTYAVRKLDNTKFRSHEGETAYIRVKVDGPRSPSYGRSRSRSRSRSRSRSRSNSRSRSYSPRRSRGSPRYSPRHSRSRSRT
UniProt Q13435: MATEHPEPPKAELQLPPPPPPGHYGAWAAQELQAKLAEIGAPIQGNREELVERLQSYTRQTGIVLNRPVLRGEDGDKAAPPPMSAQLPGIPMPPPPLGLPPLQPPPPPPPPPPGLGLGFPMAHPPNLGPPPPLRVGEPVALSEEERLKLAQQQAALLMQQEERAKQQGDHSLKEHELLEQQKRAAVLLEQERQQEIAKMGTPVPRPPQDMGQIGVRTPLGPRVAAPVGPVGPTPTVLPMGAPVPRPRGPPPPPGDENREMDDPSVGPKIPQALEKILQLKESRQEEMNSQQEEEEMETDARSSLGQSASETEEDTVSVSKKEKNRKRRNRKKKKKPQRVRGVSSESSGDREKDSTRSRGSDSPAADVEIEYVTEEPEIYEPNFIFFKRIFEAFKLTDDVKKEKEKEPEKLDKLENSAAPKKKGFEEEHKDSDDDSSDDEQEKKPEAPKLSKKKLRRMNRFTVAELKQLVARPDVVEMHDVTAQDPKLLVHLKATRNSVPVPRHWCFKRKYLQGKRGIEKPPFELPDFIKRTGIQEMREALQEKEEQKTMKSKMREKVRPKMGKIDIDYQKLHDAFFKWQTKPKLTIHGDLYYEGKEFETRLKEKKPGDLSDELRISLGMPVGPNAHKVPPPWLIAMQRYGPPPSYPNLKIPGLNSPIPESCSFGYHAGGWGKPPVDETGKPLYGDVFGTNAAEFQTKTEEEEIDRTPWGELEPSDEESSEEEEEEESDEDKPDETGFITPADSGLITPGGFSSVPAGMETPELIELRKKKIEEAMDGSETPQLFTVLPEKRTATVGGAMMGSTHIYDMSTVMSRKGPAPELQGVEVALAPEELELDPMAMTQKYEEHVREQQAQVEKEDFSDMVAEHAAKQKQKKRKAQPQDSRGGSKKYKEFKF
UniProt O75533: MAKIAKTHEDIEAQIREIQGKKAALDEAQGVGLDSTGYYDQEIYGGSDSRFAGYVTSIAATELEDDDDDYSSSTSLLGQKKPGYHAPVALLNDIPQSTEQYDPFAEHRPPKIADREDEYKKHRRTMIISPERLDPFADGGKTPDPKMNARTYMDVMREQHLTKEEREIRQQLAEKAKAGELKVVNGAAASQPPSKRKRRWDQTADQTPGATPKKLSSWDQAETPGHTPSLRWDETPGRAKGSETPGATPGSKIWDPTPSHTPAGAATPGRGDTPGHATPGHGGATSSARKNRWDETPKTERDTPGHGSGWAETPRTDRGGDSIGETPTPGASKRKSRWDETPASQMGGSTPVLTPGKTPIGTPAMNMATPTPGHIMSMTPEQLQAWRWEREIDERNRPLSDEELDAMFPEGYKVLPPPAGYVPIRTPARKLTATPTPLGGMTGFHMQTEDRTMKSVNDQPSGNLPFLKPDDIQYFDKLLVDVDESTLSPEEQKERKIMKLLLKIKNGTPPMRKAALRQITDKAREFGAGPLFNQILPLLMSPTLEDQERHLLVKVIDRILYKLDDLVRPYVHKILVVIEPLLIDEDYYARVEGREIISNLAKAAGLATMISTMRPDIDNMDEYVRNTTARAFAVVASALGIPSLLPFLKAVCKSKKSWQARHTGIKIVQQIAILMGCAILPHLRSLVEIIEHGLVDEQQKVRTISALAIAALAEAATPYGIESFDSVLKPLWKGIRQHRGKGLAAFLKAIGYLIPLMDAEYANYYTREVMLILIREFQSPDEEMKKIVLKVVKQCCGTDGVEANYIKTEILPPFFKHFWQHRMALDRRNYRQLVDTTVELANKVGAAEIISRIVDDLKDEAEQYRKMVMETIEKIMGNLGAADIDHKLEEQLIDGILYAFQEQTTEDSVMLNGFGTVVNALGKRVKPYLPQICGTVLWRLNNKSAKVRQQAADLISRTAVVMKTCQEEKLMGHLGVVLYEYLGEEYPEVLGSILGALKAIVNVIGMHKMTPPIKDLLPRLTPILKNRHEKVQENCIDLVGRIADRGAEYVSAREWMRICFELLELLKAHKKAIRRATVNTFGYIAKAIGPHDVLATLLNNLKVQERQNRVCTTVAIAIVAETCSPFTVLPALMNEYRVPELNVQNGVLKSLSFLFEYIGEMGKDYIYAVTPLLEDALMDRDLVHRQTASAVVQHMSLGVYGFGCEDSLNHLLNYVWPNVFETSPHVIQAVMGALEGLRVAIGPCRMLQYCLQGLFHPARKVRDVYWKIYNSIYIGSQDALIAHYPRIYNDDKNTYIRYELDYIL

Molecular target: T7-tagged SRSF1 (human) (UniProt Q07955)
Assay: affinity purification with mass spectrometry; T7-tagged bait induced with doxycycline in HeLa cells; lysate treated with nuclease (1 U/mL RNase A, 40 U/mL RNase T1, 500 U/mL Benzonase, 2 mM MgCl2) for 30 min before immunoprecipitation on Dynabeads Protein G, 1 h at 4 °C; on-bead digestion, MudPIT LTQ MS; enrichment against uninduced (Dox-) cells

| Substance | binding |
| --- | --- |
| SF3B2 (from UniProt Q13435 1-895) | binds |
| SF3B1 (from UniProt O75533 1-1304) | binds |

Results are given in words; binding and its absence hold for the method and conditions named. In cells and extracts the contact can be indirect. These calls come from enrichment with a bait or labelling near it, and not all partners need be listed.
